Hit rate of the full screen: of about 1,300 compounds, about 1,200 (92%) were called active. The set was probably picked from earlier hits. Inconclusive means that the source gave no clear call. Such entries were picked first, then a sample of the others. No rule for the calls is given here.
Experiment: P. falciparum Dd2 growth inhibitors, dose response, SYBR Green, cherry-picked samples (AID 1159567)
Conditions: Plasmodium falciparum Dd2 growth, SYBR Green fluorescence; at 19.5 µM (top of the series)

| Structure (SMILES) | activity change, negative = inhibition |
| --- | --- |
| COc1ccc(NC(=O)N2CCCCN3[C@H](CO)[C@H](c4ccc(-c5ccccc5F)cc4)[C@@H]3C2)cc1 | inconclusive: -44.3% |
| CO[C@@H]1CN(C)C(=O)c2cc(NC(=O)c3ccc(Oc4ccccc4)cc3)ccc2OC[C@@H](C)NC[C@@H]1C | inconclusive: -95.8% |
| CCC(=O)N1CC2(C1)CN(Cc1cccc(Cl)c1)[C@H](CO)c1[nH]c3cc(OC)ccc3c12 | inconclusive: -94.9% |
| COc1ccc(-c2ccc(C3[C@H]4CNC[C@@H]3N4S(=O)(=O)c3cccc(OC)c3)cc2)cc1 (some centres not stated) | inconclusive: -55.1% |
| COc1cccc(-c2ccc3c(c2)[C@@H]2[C@@H](CCN2S(=O)(=O)c2cn(C)cn2)[C@H](CO)N3)c1 | inconclusive: -94.2% |
| CN(C)C(=O)c1ccc(-c2ccc([C@H]3[C@H](CO)N4CCCCN(C(=O)C5CC5)C[C@@H]34)cc2)cc1 | inconclusive: -68% |
| COCC(=O)N1[C@H](C#N)[C@@H](c2ccccc2C2=CCCC2)[C@@H]1CO | inactive: -0.072% |
| COc1ccc(S(=O)(=O)N(C)C[C@@H]2Oc3c(NC(=O)Nc4cccc5ccccc45)cccc3C(=O)N([C@H](C)CO)C[C@@H]2C)cc1 | inconclusive: -24.1% |
| COc1ccc2c3c([nH]c2c1)[C@@H](CO)N(C(=O)Nc1ccc(F)cc1)CC31CN(Cc2cc(F)ccc2F)C1 | inconclusive: -101% |
| O=C(Nc1ccccc1F)N1C[C@@H]2[C@H](c3ccccc31)[C@H](CO)N2C(=O)C1CCOCC1 | inactive: -23.9% |
| C[C@@H]1CN([C@@H](C)CO)C(=O)Cc2cc(NC(=O)Nc3ccc4c(c3)OCO4)ccc2O[C@H]1CN(C)Cc1ccc2c(c1)OCO2 | inconclusive: -88.8% |
| O=C(C[C@H]1C=C[C@@H](NC(=O)Nc2ccccc2F)[C@H](CO)O1)NCc1ccc(-c2ccccc2)cc1 | inconclusive: 6.17% |

Two of the compounds above, bar-delimited.
Structure (SMILES) | activity change, negative = inhibition
COCC(=O)N1[C@H](C#N)[C@@H](c2ccccc2C2=CCCC2)[C@@H]1CO | inactive: -0.072%
COc1ccc(S(=O)(=O)N(C)C[C@@H]2Oc3c(NC(=O)Nc4cccc5ccccc45)cccc3C(=O)N([C@H](C)CO)C[C@@H]2C)cc1 | inconclusive: -24.1%

Reference: PubChem BioAssay AID1159567 (Broad Institute, 2015)
